The record followed here is PubChem BioAssay AID2685 (National Center for Advancing Translational Sciences (NCATS), 2010).

By AC50 is commonly meant the midpoint of the concentration-response curve, whichever way the signal moves.

This is one part of the list. The main result of the screen is listed elsewhere. These columns were measured beside it and carry no call. The list favours compounds with an active or inconclusive main result. The note in brackets gives the kind of curve behind each potency; many fits are weak.

The test in a line: qHTS Assay for Lipid Storage Modulators in Drosophila S3 Cells.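 As to cell number change: cells counted by Cell Tracker Red CMTPX staining in the red channel.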 The note with it: BODIPY lipid droplet fluorescence, 18-24 h; for cell number change: measured here: cell count max response, cells fed with added oleic acid. A digest of the protocol: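 Laser-scanning cytometry quantifies lipid droplet accumulation (500–530 nm total intensity; droplet/cell object ratio) in oleic acid-fed (400 uM added) Drosophila S3 cells treated with a concentration series. 20 uM Triacsin C defined 100% inhibition.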
(In general: qHTS replaces the single test concentration by a dilution series.)

The mark [1] stands for this setting: measured here: cell number channel AC50, cells fed with added oleic acid.
Setting [2] is: measured here: lipid fluorescence (Fed channel) AC50, cells fed with added oleic acid.

Turning to `CC(C)Cn1c(N)c(C(=O)NCc2cccs2)c2nc3ccccc3nc21`, the cell number change is -165%. Further, the AC50 under setting [1] is 0.461 µM [falling, single point].

`CC(OC(=O)Cn1c(C(F)(F)F)nc2ccccc21)C(N)=O` (centres undefined): the cell number change is -10.4%. Further, the AC50 under setting [2] was 0.82 µM [rising, single point].

With `COc1ccc(C(C)=O)cc1CC(=O)Nc1ccc2c(c1)CCC2`, the cell number change was found to be 23.4%. Under setting [2], the AC50 was 4.11 µM [falling, single point].

`COc1cccc(-c2nnc3sc(-c4cccs4)nn23)c1`: the cell number change came out at 0.197%. For the same compound, the AC50 under setting [2] is 5.17 µM [rising, partial curve].

As for `CCC(C)NS(=O)(=O)c1ccc(NC(=O)c2ccc([N+](=O)[O-])cc2Cl)cc1` (centres undefined), the cell number change was -20.6%. Further, under setting [2], the AC50 is 16.4 µM [falling, single point].

Consider `Cc1ccc(NC(=O)C2CCN(C(=O)c3cccs3)CC2)c(C)c1`, for which the cell number change worked out at 0.901%.

With `COc1cc(C(=O)NCCCc2ccccc2)cc(OC)c1OC`, the cell number change was -16.8%. In addition, under setting [2], the AC50 was 2.31 µM [rising, single point].

As for `CC(C)CSc1nnc(N)s1`, the cell number change is -12.9%. The half-maximal activity concentration (AC50) under setting [1] was 0.092 µM [rising, full curve, poor fit].

In the case of `COC(=O)C1(C(=O)OC)NOC2C(=O)N(c3ccccc3)C(=O)C21` (centres undefined), the cell number change is -44%. Moreover, under setting [1], the AC50 was 25.9 µM [falling, single point]. Moreover, the AC50 under setting [2] was 5.17 µM [falling, full curve].

With `O=C(c1cccc(S(=O)(=O)N2CCCC2)c1)N1CCOCC1`, the cell number change amounted to 0.987%. Also, the AC50 under setting [2] was 3.66 µM [falling, single point].

In the case of `COc1ccc(OCC(=O)NCCNC(=O)c2ccccn2)cc1`, the AC50 under setting [2] is 35.5 µM [rising, single point].

`Cc1ccc(C(=O)N2CCN(c3cnn(C)c(=O)c3Cl)CC2)cc1`: the cell number change is -12.5%. Further, the AC50 under setting [1] was 0.0731 µM [falling, full curve, poor fit]. The AC50 under setting [2] was 0.103 µM [falling, full curve, poor fit].

With `COc1ccc(Cl)cc1NC(=O)CCCN1C(=O)CCC1=O`, the cell number change stood at 16.1%. Besides, under setting [1], the AC50 was 0.82 µM [falling, single point]. Further, the half-maximal activity concentration (AC50) under setting [2] is 23.1 µM [falling, single point].

On to `O=S(=O)(N/N=C/c1ccc(F)cc1)c1ccccc1`, for which the cell number change was found to be 10.3%. Moreover, the AC50 under setting [2] is 0.231 µM [rising, single point].

For `COc1ccc(CN2CCNC(=O)C2CC(=O)N(C)Cc2nc(C)cs2)c(OC)c1` (centres undefined), the cell number change is -25.7%. Besides, under setting [2], the AC50 is 6.51 µM [rising, single point].

For `CC(C)c1ccc(NC(=O)CNCC(c2ccccc2)N(C)C)cc1` (centres undefined), the cell number change amounted to 16%. In addition, the AC50 under setting [1] was 6.51 µM [falling, single point]. The AC50 under setting [2] is 6.51 µM [falling, partial curve, poor fit].

As for `CC(C)c1nnc(NC(=O)C2CCCN2C(=O)Nc2ccc(F)cc2)s1` (centres undefined), the cell number change came to 3.42%. Under setting [2], the AC50 was 29.1 µM [rising, single point].

For the compound `O=C(C1CC1)N1CCC(c2nc(-c3ccc(S(=O)(=O)NCC4CCCO4)cc3)no2)CC1` (centres undefined), under setting [2], the AC50 is 23.1 µM [falling, single point].

In the case of `COc1cc(NC(=O)C2CCCN2S(=O)(=O)c2ccc3c(c2)CC(C)N3C(C)=O)cc(OC)c1` (centres undefined), the cell number change was found to be 8.06%.

For the compound `N#CC(Cc1ccccc1OC(F)F)c1nc2ccccc2[nH]1` (centres undefined), the cell number change is 15%.

As to `CCC(C(=O)OC)n1cnc2scc(-c3ccc(C)cc3)c2c1=O` (centres undefined), the cell number change was -28%. Further, the AC50 under setting [2] is 29.1 µM [falling, single point].

As for `CCOCCCNC(=O)c1oc2ccc(S(=O)(=O)N3CCOCC3)cc2c1C`, the AC50 under setting [2] is 29.1 µM [falling, single point].

On to `COc1cc(C(=O)Nc2ccc(NC(=O)c3cccc(Cl)c3)nc2)cc(OC)c1OC`, for which the cell number change came to 25.4%.

With `COc1cc(Cl)ccc1OCc1cc(C(=O)N(C)CC2CCCCO2)no1` (centres undefined), the cell number change was 8.56%.

Regarding `CC(C(=O)NCc1ccco1)n1ccc2cc(S(=O)(=O)N3CCCCC3)ccc21` (centres undefined), the AC50 under setting [2] was 6.51 µM [rising, single point].

Regarding `CCOC(=O)CSc1nnc(-c2c[nH]c3ccccc23)n1CC`, the cell number change was -74.1%. Moreover, the AC50 under setting [1] is 18.4 µM [falling, partial curve]. The AC50 under setting [2] is 9.2 µM [falling, partial curve].

Regarding `COc1ccc2c(Cl)c(C(=O)NCCc3ccc(S(N)(=O)=O)cc3)sc2c1`, the cell number change is 129%. Also, under setting [1], the AC50 was 23.1 µM [rising, partial curve].

For the compound `COc1ccc(CN(C2CCCC2)S(=O)(=O)c2ccc(-n3cnnn3)c(OC)c2)cc1OC`, the cell number change was -41.6%. Besides, under setting [1], the AC50 is 20.6 µM [falling, single point]. Moreover, under setting [2], the AC50 was 29.1 µM [falling, single point].

Take `C=CCNc1nc2ccccc2nc1NS(=O)(=O)c1ccc(Cl)cc1`: the cell number change is -14.9%. Further, the AC50 under setting [2] was 29.1 µM [falling, single point].

Consider `CCN(CC(=O)NCc1cccs1)C(=O)/C=C/c1ccc(OC)cc1OC`, for which the AC50 under setting [2] was 2.91 µM [rising, partial curve, poor fit].

With `CCOCCCn1c(SCC(=O)Nc2cccc(S(=O)(=O)NC3=NCCCCC3)c2)nc2ccccc2c1=O`, the cell number change amounted to 2.45%. For the same compound, the AC50 under setting [1] is 0.116 µM [falling, full curve, poor fit].

With `COc1ccc(CCN2CC(C(=O)OCC(=O)NC(C)c3cccc(Cl)c3)CC2=O)cc1OC` (centres undefined), the cell number change is 5.91%. Also, the AC50 under setting [2] was 8.2 µM [rising, partial curve].

Consider `O=C(Cc1ccc2ccccc2c1)Nc1ccccc1Br`, for which the cell number change was 27.2%. Besides, under setting [2], the AC50 is 5.17 µM [rising, full curve].

`COc1ccc(-c2noc(-c3ccccc3F)n2)cc1`: the cell number change is 103%. For the same compound, the AC50 under setting [1] was 0.231 µM [rising, single point]. Besides, the AC50 under setting [2] was 0.00517 µM [rising, full curve].

Take `O=C(NCCN1CCN(c2ccccc2)CC1)c1cccn2c(=O)c3cc(Cl)ccc3nc12`: the cell number change was -15.5%. Under setting [2], the half-maximal activity concentration (AC50) is 0.58 µM [rising, single point].

For `Oc1ccccc1-c1cc(-c2ccc(Cl)cc2)n[nH]1`, the cell number change was -48.4%. Further, under setting [1], the AC50 is 18.4 µM [falling, partial curve]. Besides, under setting [2], the concentration at half-maximal activity (AC50) is 18.4 µM [falling, partial curve].

For `COc1ccccc1C(=O)NNC(=O)C(=O)Nc1ccc(C)cc1`, the cell number change is 19%. Further, the concentration at half-maximal activity (AC50) under setting [2] is 6.51 µM [falling, partial curve].

Turning to `O=C(Nc1ccc(Cl)cc1)[C@@H]1[C@@H]2C(=O)N(c3ccc(Cl)cc3Cl)C(=O)[C@@H]2[C@H]2C=CC=NN21`, the cell number change is 55.6%. In addition, under setting [1], the AC50 was 23.1 µM [rising, single point].
